In patent US20210047432A1:
Results are given in words; binding and its absence hold for the method and conditions named. Some results given as binding are weak or reduced against the parent protein; the word gives no strength.

Protein sequences, listed by entry. Tags and fused reporters are not part of them. Lines headed by an entry give the natural chain unless they say otherwise; changes in a name come on top. Chains listed by the source or under a name are the forms on record and can include a tag or linker. Residues count along the entry.
human FcγRIIA (H131) (P12318, residues 34-317): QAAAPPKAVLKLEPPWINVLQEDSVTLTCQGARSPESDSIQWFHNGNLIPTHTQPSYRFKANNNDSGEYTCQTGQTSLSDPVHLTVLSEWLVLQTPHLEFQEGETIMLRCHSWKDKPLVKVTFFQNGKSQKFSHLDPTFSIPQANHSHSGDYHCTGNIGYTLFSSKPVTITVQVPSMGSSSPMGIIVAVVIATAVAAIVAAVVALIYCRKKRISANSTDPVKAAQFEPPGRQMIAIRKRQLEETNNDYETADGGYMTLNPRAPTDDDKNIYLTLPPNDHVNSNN
human FcγRIIA(R131) (P12318, form named): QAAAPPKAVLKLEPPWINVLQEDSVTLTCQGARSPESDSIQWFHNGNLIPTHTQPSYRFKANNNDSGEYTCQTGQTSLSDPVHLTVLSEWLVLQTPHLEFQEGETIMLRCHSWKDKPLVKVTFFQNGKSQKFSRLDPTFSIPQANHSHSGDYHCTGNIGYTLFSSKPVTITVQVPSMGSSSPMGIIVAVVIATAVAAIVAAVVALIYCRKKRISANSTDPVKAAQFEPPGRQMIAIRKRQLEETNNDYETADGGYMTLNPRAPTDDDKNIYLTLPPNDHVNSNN
human FcγRIIIA(F176) (P08637, residues 17-254): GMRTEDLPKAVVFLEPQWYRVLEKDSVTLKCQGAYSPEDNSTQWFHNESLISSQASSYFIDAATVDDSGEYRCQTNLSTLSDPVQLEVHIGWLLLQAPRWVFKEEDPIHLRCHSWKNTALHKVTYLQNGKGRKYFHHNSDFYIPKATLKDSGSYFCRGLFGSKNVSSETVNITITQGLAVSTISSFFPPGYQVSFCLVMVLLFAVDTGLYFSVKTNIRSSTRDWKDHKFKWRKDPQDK
human FcγRIIIA(V176) (P08637, form named): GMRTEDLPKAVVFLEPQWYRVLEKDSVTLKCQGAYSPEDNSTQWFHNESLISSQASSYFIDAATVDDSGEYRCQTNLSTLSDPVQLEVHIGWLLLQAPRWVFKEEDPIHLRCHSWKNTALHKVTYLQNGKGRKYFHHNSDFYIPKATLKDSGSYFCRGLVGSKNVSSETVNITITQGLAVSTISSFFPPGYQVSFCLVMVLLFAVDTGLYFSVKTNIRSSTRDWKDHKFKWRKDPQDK
human FcγRIIIB(NA1) (O75015, form named): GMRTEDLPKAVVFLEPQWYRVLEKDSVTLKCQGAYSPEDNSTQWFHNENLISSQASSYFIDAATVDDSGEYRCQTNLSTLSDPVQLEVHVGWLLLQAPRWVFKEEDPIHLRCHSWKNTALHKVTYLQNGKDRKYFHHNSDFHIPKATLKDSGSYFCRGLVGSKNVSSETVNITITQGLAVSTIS
human FcγRIIIB(NA2) (O75015, form named): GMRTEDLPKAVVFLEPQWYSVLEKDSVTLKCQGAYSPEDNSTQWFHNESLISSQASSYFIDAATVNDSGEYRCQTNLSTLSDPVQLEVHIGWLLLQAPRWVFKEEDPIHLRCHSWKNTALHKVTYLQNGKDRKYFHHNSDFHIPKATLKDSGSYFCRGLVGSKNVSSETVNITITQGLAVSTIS
human FcγRIIIB(SH) (O75015, form named): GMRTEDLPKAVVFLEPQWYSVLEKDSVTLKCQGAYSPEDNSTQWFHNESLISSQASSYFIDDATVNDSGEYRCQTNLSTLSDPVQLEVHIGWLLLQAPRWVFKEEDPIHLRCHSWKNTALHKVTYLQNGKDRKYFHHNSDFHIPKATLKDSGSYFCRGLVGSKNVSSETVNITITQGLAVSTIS
UniProt P12314, residues 16-374: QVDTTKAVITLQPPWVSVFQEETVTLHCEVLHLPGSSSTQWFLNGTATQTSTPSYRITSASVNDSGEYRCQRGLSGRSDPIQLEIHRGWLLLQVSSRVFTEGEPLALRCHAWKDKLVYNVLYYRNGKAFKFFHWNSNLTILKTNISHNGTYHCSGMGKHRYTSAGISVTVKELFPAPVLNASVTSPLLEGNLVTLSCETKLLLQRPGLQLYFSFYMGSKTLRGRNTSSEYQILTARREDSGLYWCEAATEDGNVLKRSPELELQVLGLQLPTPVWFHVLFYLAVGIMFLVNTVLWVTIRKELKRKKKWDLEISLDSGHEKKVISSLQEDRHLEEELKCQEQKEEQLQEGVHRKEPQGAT
UniProt P04054: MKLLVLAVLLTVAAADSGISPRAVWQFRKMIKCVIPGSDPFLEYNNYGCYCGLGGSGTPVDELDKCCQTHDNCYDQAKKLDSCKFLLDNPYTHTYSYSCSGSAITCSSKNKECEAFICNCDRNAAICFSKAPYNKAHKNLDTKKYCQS

Key:
Experiment in all cases: flow cytometry, antibody-antigen immune complex on CHO cells expressing the receptor
[1] = target: human FcγRIIA (H131) (human) (UniProt P12318)
[2] = target: human FcγRIIIA(F176) (human) (UniProt P08637)
[3] = target: human FcγRIIIA(V176) (human) (UniProt P08637)
[4] = target: human FcγRIIA(R131) (human) (UniProt P12318)
[5] = target: human FcγRIIIB(NA1) (human) (UniProt O75015)
[6] = target: human FcγRIIIB(NA2) (human) (UniProt O75015)
[7] = target: human FcγRIIIB(SH) (human) (UniProt O75015)
human FcγRI (human) = human FcγRI (human) (UniProt P12314)

Measured: binding

immune complex of #2B with sPLA2-GIB (from UniProt P04054 23-148)
binds: [1] | [2] | [3] | [4] | [5] | [6] | [7] | human FcγRI (human)
